Source: patent publication US12642270B2, “Substituted thiophene carboxamides, thiophene carboxylic acids and derivatives thereof” (Bayer Aktiengesellschaft, priority 2019, dated 2026)
Some entries share one result that the patent states for a list of compounds.

Tested on: Xanthomonas campestris pv. campestris
Assay: Example P: Xanthomonas campestris pv. campestris in vitro cell test, formula (II)
Type: cell-based
Details: 20 ppm of active ingredient, 24 h incubation
Experimental: • Solvent: DMSO • Culture medium: LB broth medium (Luria Broth Miller) Sigma • Inoculum: bacteria suspension
Compounds were solubilized in DMSO and the solution used to prepare the required range of concentrations. The final concentration of DMSO used in the assay was ≤1%.
Inoculum was prepared from a pre-culture of bacteria grown in liquid medium and diluted to the desired optical density (OD).
Compounds were evaluated for their ability to inhibit bacteria growth in liquid culture assay. The compounds were added in the desired concentrations to culture medium containing the bacteria suspension. After 24 h of incubation, the efficacy of compounds was determined by spectrometric measurement of bacteria growth. Inhibition was determined by comparing the absorbance values in wells containing the compounds with the absorbance in control wells without active ingredients.

## COC(=O)c1sc(Br)c(C#N)c1Cl [II.021]
  efficacy (inhibition of bacteria growth; no direct activity): ≤ 30%
